No constants are given. Whether binding was seen depends on the method and setting. Binding can be weak; no strength is given.

By UniProt entry, the sequences of proteins in these tests, tags left out. Where a name states a change or a piece, a line headed by the entry shows the natural chain unless it says otherwise.
UniProt Q9UNA1: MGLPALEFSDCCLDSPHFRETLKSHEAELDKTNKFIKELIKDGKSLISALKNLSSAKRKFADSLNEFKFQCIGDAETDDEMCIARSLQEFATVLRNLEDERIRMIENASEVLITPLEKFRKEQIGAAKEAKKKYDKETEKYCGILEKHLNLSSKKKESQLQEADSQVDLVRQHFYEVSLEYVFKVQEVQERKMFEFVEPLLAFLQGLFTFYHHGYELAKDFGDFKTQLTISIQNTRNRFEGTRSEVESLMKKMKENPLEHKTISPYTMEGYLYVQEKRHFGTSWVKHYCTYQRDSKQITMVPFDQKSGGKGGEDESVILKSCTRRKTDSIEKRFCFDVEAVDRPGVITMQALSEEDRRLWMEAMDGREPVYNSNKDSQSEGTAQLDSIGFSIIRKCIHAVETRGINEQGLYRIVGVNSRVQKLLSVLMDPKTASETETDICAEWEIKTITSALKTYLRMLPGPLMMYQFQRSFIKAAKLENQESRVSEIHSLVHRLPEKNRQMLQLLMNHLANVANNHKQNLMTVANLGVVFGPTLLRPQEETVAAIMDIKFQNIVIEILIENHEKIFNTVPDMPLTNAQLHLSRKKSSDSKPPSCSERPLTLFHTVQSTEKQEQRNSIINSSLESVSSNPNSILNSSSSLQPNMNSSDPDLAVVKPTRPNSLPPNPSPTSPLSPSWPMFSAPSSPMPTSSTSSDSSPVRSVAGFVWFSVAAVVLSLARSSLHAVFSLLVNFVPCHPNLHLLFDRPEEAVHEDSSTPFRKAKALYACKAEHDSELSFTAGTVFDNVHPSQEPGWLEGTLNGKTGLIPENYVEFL
UniProt P60953: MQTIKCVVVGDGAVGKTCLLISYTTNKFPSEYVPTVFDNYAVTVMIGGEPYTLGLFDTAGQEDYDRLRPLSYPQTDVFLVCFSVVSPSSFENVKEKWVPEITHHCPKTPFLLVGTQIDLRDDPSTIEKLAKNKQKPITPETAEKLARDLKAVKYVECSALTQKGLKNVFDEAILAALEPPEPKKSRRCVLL

This note sets out measurements from article PMC4712783.

The target in test [1] is GST-tagged GRAF1 GAP domain (UniProt Q9UNA1). As to the kind of experiment: pull-down; GST-tagged GAP domain on glutathione-Sepharose 4B beads as bait, purified Cdc42 proteins loaded with GDP in the presence of AlFx (1 mM AlCl3, 25 mM NaF) as prey; 1-3 h at 4°C under rotation; bound and unbound fractions on Coomassie-stained SDS-PAGE; both purified.
The target is the same in test [2]. Description: pull-down; GST-tagged GAP domain on glutathione-Sepharose 4B beads as bait, purified Cdc42 proteins loaded with GTPγS as prey; 1-3 h at 4°C under rotation; bound and unbound fractions on Coomassie-stained SDS-PAGE; both purified.

With “Cdc42 (wild type), purified (from UniProt P60953 1-191)”, the binding result in test [1] is recorded as “binds”.

For the substance “Cdc42-Q61L, purified (from UniProt P60953 1-191)”, the binding result in test [2] and in test [1] was “binds” in each case.
